From doi:10.64898/2025.11.30.691369 come the findings set out here.

Protein sequences, listed by entry. Tags and fused reporters are not part of them. Lines headed by an entry give the natural chain unless they say otherwise; changes in a name come on top.
UniProt P0DO08: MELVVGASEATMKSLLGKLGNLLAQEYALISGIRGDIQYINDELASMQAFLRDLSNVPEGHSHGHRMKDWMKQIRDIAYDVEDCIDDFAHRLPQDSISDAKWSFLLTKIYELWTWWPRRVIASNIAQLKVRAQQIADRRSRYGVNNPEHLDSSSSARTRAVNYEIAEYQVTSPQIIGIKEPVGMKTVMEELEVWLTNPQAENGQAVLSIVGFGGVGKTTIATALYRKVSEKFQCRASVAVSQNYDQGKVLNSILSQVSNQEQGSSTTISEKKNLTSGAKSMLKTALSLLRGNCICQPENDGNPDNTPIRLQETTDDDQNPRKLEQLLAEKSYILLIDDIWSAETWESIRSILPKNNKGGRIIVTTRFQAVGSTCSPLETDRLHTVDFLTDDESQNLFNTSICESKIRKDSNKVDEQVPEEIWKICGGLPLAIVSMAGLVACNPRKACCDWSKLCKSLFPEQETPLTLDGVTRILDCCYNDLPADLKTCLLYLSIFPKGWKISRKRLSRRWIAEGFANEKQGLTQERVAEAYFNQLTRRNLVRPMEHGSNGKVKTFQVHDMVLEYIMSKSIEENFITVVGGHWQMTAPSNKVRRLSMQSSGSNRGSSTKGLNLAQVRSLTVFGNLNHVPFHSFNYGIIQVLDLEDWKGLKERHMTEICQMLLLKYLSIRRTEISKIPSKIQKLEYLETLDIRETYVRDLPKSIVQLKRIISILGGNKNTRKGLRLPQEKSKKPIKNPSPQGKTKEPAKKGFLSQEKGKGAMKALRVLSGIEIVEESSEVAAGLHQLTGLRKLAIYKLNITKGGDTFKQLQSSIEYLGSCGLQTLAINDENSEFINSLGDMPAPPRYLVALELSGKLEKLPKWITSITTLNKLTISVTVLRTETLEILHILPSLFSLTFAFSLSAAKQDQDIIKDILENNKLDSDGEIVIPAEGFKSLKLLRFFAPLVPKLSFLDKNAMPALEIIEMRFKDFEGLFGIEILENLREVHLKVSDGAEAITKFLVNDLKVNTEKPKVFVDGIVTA

Experiment [1] concerns the target T1, Pikm-1-2xV5 (rice (Oryza sativa)) (UniProt B5UBC1).
T1 sequence: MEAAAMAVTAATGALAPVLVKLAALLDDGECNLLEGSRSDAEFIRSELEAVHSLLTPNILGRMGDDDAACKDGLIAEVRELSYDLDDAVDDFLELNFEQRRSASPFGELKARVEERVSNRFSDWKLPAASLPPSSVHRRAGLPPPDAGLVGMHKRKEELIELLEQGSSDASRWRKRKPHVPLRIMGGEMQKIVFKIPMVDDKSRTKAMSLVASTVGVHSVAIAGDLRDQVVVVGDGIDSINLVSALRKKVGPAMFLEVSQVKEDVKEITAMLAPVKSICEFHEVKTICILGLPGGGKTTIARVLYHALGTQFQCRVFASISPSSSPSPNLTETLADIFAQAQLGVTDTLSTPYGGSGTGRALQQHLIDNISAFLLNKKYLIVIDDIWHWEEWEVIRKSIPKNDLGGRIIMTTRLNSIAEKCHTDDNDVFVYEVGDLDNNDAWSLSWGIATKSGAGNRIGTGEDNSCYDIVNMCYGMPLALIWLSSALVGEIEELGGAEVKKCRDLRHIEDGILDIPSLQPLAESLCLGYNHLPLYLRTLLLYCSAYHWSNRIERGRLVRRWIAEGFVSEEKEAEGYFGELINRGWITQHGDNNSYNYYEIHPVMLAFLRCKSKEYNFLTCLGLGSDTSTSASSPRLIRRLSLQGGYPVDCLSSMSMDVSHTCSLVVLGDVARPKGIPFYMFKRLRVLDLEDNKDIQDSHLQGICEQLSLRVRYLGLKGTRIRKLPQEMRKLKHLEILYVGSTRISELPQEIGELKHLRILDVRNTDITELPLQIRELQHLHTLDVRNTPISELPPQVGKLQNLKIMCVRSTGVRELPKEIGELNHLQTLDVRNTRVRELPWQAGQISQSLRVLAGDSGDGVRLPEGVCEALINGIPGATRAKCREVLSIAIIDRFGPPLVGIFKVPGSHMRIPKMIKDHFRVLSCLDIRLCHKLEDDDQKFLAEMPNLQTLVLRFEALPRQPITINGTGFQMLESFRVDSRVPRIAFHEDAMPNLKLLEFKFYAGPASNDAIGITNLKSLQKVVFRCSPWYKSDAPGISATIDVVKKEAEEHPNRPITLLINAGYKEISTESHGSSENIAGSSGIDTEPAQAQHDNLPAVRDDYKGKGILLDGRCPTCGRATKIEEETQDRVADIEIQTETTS
The experiment is described as follows: co-IP.

Experiment [2] concerns the target T1, Pikm-1-2xV5 (rice (Oryza sativa)). The experiment is described as follows: native gel or EMSA.

Results are given in words; binding and its absence hold for the method and conditions named. Binding can be weak; no strength is given. For some assays here: In cells and extracts the contact can be indirect.

Take “Pikm-2-6xHA (from UniProt P0DO08) (receptor)”: the binding entry in experiment [1] and in experiment [2] was “binds” in each case.
